The source of these data is US9506933B2 (TOAGOSEI CO., LTD., priority 2011, dated 2016).

The nature of the data set: peptide made by a vendor (Fmoc solid-phase peptide synthesis). The note with it: whole synthesis, HPLC peak area ratio.

Ends that are not written are not given here.

In the case of MLPGLALLLLAAWTARA-OH, the “final HPLC purity” value is 92% to 94% and the “final purity (method not given)” value is on record as 94.38%.
